Consider 29 molecules from publication PMC4561369.

Protein sequences, listed by entry. Tags and fused reporters are not part of them. Residues count along the entry.
UniProt P56480, residues 47-529: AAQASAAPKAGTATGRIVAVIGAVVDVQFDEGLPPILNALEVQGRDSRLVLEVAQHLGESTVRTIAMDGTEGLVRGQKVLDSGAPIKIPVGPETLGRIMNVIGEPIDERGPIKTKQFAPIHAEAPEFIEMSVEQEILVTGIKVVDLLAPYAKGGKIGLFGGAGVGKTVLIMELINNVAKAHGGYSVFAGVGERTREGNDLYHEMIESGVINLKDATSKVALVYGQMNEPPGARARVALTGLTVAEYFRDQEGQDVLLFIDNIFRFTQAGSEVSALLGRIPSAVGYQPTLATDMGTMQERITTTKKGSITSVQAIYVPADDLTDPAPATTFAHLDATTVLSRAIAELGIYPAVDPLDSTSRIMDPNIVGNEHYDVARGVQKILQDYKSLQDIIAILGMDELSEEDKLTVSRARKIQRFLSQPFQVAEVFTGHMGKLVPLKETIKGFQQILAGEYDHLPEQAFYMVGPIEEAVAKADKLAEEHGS
UniProt B2RQC6: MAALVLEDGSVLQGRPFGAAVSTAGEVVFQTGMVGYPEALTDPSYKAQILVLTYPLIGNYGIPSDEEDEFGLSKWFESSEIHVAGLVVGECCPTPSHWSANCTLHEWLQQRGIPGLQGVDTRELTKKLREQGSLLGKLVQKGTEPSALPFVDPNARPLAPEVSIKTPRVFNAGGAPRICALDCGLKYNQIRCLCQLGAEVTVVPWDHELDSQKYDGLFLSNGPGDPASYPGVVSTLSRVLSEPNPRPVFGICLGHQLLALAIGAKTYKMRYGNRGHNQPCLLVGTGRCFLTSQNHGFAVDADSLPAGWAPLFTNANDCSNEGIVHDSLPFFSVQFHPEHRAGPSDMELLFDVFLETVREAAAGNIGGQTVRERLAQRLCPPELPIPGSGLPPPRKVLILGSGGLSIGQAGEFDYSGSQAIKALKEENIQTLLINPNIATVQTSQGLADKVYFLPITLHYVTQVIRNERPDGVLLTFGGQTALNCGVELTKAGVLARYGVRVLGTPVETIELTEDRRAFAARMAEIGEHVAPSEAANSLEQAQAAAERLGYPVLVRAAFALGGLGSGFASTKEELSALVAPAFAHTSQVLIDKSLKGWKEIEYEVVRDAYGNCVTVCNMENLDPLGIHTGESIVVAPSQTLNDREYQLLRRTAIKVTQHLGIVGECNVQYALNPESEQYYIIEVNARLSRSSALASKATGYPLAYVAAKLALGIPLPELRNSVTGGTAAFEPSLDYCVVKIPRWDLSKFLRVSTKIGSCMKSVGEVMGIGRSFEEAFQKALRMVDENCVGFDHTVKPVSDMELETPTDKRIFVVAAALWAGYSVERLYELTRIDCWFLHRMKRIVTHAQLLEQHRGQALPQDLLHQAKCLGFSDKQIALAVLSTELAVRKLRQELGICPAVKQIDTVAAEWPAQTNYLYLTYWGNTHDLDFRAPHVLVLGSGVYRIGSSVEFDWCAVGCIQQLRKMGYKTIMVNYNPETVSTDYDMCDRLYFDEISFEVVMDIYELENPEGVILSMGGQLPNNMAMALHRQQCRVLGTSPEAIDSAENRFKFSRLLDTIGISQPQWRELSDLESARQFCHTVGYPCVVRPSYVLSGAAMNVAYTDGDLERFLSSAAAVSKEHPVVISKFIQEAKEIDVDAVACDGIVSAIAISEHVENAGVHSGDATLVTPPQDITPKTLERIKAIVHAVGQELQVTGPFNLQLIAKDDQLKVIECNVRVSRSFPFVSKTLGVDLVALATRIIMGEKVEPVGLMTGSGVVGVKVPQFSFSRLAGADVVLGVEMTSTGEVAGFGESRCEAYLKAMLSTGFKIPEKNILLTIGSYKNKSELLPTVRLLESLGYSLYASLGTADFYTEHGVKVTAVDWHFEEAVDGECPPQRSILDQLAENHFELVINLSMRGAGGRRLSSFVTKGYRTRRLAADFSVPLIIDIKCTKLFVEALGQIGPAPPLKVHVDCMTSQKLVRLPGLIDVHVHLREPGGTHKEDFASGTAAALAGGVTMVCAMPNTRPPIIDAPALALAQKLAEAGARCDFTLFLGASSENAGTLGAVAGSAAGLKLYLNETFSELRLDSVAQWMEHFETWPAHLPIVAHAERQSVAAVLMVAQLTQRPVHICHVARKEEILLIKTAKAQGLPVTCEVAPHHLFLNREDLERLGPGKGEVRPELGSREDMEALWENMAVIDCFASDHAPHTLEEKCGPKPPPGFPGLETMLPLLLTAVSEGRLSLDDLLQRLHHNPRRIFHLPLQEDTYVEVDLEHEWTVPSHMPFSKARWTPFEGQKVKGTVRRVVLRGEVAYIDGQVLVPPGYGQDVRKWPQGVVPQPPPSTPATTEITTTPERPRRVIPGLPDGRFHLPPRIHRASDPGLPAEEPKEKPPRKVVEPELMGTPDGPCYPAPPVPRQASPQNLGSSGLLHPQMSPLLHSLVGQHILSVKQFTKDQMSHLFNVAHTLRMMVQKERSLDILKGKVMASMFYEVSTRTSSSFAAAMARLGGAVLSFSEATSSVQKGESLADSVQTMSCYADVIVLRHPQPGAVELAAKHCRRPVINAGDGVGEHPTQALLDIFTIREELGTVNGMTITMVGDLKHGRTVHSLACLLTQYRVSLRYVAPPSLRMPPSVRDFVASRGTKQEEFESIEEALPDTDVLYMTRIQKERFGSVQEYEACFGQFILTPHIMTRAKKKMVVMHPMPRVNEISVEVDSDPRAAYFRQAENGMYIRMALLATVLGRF
UniProt P63038, residues 27-573: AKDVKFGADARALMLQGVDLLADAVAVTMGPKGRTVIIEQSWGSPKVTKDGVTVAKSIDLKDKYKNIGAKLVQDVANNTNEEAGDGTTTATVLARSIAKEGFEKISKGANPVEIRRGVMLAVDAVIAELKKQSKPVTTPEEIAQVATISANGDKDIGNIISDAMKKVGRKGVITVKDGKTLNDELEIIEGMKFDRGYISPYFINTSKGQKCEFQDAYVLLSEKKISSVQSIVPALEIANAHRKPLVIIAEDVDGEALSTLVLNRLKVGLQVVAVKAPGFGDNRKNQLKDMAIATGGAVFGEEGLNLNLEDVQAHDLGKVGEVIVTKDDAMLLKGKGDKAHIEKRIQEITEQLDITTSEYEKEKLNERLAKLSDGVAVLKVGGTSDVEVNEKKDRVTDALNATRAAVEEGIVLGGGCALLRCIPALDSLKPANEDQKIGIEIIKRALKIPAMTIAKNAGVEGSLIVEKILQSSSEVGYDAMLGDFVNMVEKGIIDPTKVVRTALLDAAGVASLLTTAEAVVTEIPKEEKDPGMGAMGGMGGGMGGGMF
UniProt Q61699: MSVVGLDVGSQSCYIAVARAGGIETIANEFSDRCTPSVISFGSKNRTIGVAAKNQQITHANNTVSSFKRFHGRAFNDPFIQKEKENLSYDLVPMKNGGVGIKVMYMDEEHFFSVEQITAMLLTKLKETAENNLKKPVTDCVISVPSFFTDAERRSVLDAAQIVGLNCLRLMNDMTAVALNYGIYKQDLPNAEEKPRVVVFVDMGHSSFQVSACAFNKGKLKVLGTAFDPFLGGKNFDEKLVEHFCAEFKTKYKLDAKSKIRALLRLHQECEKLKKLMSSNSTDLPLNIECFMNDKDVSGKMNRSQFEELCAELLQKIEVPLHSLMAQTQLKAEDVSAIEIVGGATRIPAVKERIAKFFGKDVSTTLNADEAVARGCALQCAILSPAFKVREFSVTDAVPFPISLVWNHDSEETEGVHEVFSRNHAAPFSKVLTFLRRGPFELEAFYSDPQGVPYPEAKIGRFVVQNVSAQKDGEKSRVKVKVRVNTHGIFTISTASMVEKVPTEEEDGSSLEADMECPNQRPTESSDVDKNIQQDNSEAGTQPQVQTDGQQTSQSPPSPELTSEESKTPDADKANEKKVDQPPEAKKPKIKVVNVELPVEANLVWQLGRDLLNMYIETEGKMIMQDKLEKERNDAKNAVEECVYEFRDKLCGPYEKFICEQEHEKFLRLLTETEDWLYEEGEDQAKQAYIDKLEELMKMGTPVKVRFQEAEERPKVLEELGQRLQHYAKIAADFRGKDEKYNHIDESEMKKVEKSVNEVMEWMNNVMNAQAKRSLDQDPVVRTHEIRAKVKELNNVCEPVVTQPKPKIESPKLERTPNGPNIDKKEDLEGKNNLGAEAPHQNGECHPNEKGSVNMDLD
UniProt Q9JKF1: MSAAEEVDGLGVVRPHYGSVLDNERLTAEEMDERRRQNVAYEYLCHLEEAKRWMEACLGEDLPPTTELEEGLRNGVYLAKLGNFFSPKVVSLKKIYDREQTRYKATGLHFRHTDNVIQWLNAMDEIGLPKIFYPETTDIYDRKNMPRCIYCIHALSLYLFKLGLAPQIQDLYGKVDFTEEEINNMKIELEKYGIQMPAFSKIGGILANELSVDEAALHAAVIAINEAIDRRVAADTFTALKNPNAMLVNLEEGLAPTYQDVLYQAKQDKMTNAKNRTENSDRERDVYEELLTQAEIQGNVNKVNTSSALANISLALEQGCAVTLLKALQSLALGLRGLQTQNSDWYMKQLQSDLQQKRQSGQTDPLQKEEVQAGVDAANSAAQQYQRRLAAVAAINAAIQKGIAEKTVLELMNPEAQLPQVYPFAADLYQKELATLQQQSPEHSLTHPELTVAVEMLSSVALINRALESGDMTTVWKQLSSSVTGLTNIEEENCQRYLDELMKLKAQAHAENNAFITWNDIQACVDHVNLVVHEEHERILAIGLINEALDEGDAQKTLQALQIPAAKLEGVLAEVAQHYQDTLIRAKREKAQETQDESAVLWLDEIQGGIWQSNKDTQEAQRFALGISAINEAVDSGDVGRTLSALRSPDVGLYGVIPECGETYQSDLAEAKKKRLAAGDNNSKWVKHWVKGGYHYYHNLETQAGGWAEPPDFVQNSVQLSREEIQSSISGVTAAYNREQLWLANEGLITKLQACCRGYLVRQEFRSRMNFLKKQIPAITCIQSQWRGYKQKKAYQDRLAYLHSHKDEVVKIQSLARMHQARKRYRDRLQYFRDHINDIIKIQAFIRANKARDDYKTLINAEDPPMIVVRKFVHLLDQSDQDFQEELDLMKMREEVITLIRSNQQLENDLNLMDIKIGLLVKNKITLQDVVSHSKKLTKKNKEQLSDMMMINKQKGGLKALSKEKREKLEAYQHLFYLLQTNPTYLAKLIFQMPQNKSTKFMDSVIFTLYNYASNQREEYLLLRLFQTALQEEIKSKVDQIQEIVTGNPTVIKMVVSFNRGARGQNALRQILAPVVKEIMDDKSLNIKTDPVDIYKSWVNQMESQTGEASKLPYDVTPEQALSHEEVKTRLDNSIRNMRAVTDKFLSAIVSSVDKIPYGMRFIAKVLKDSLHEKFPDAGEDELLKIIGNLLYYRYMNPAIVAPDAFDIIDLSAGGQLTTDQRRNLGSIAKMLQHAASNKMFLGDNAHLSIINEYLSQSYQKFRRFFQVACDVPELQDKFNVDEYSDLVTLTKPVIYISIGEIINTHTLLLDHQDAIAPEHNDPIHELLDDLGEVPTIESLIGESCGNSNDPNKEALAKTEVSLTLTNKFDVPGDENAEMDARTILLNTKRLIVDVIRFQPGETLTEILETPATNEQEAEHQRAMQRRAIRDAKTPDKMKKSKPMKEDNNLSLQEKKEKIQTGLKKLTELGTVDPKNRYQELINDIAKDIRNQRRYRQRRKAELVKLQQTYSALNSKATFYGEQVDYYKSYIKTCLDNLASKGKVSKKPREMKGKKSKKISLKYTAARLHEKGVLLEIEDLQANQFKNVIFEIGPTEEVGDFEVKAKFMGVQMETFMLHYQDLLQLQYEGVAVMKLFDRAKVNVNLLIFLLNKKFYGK
UniProt P60335: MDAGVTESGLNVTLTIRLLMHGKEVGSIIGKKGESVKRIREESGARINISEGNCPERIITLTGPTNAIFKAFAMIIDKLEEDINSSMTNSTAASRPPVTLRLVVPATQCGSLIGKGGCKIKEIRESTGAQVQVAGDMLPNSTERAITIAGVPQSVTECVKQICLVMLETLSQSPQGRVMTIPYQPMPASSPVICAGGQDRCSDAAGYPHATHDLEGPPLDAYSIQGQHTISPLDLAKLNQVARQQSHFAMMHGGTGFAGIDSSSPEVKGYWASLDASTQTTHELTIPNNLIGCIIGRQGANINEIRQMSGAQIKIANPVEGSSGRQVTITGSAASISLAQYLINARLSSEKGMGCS
UniProt Q61990: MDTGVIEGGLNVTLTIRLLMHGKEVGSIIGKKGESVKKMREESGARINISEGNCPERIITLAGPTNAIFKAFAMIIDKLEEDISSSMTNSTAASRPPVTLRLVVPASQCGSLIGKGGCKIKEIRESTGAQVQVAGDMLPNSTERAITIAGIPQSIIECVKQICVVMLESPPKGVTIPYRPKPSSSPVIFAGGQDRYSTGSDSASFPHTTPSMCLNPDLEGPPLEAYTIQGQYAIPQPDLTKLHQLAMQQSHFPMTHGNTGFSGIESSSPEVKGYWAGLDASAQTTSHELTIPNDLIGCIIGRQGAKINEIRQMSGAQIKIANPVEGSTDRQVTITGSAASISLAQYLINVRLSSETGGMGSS

B1: Ipo5 (protein, UniProt Q8BKC5 1-1097)
chain: MAAAAAEQQQFYLLLGNLLSPDNVVRKQAEETYENIPGRSKITFLLQAIRNTTAAEEARQMAAVLLRRLLSSAFDEVYPALPSDVQTAIKSELLMIIQMETQSSMRKKICDIAAELARNLIDEDGNNQWPEGLKFLFDSVSSQNMGLREAALHIFWNFPGIFGNQQQHYLDVIKRMLVQCMQDQEHPSIRTLSARATAAFILANEHNVALFKHFADLLPGFLQAVNDSCYQNDDSVLKSLVEIADTVPKYLRPHLEATLQLSLKLCGDTNLNNMQRQLALEVIVTLSETAAAMLRKHTSLIAQTIPQMLAMMVDLEEDEDWANADELEDDDFDSNAVAGESALDRMACGLGGKLVLPMIKEHIMQMLQNPDWKYRHAGLMALSAIGEGCHQQMEGILNEIVNFVLLFLQDPHPRVRYAACNAVGQMATDFAPGFQKKFHEKVIAALLQTMEDQGNQRVQAHAAAALINFTEDCPKSLLIPYLDNLVKHLHSIMVLKLQELIQKGTKLVLEQVVTSIASVADTAEEKFVPYYDLFMPSLKHIVENAVQKELRLLRGKTIECISLIGLAVGKEKFMQDASDVMQLLLKTQTDFNDMEDDDPQISYMISAWARMCKILGKEFQQYLPVVMGPLMKTASIKPEVALLDTQDMENMSDDDGWEFVNLGDQQSFGIKTAGLEEKSTACQMLVCYAKELKEGFVEYTEQVVKLMVPLLKFYFHDGVRVAAAESMPLLLECARVRGPEYLTQMWHFMCDALIKAIGTEPDSDVLSEIMHSFAKCIEVMGDGCLNNEHFEELGGILKAKLEEHFKNQELRQVKRQDEDYDEQVEESLQDEDDNDVYILTKVSDILHSIFSSYKEKVLPWFEQLLPLIVNLICPQRPWPDRQWGLCIFDDIVEHCSPASFKYAEYFISPMLQYVCDNSPEVRQAAAYGLGVMAQFGGDNYRPFCTDALPLLVRVIQAPEAKTKENVNATENCISAVGKIMKFKPDCVNVEEVLPHWLSWLPLHEDKEEAVQTFSYLCDLIESNHPIVLGPNNTNLPKIFSIIAEGEMHEAIKHEDPCAKRLANVVRQVQTSGGLWTECIAQLSPEQQAAIQELLNSA
B2: Lcp1 (protein, UniProt Q61233 1-627)
chain: MARGSVSDEEMMELREAFAKVDTDGNGYISCNELNDLFKAACLPLPGYRVREITENLMATGDLDQDGKISFDEFIKVFHGLKSTEVAKTFRKAINKKEGICAIGGTSEQSSVGTQHSYSEEEKYAFVNWINKALENDPDCRHVIPMNPNTDDLFNAVGDGIVLCKMINLSVPDTIDERTINKKKLTPFTIQENLNLALNSASAIGCHVVNIGAEDLKEGKPYLVLGLLWQVIKIGLFADIELSRNEALIALLREGESLEDLMKLSPEELLLRWANYHLENAGCTKITNFSTDIKDSKAYYHLLEQVAPKGDEEGIPAVVIDMSGLREKDDIQRAECMLQQAERLGCRQFVTATDVVRGNPKLNLAFIANLFNKYPALHKPENQDIDWGALEGETREERTFRNWMNSLGVNPRVNHLYSDLSDALVIFQLYEKIKVPVDWNRVNKPPYPKLGGNMKKLENCNYAVDLGKNQAKFSLVGIAGQDLNEGNRTLTLALVWQLMRRYTLNILEDIGGGQKVNDDIIVNWVNTTLKEAQKSSSIASFKDPKISTSLPVLDLIDAIQPGSINYDLLKTENLDDEEKLNNAKYAISMARKIGARVYALPEDLVEVNPKMVMTVFACLMGKGMKRV
B3: Fam49b (protein, UniProt Q921M7 1-324)
chain: MGNLLKVLTCTDLEQGPNFFLDFENAQPTESEKEIYNQVNVVLKDAEGILEDLQSYRGAGHEIREAIQHPADEKLQEKAWGAVVPLVGKLKKFYEFSQRLEAALRGLLGALTSTPYSPTQHLEREQALAKQFAEILHFTLRFDELKMTNPAIQNDFSYYRRTLSRMRINNVPAEGENEVNNELANRMSLFYAEATPMLKTLSDATTKFVSENKNLPIENTTDCLSTMASVCRVMLETPEYRSRFTNEETVSFCLRVMVGVIILYDHVHPVGAFAKTSKIDMKGCIKVLKDQPPNSVEGLLNALRYTTKHLNDETTSKQIRSMLQ
B4: Hspbp1 (protein, UniProt Q99P31 1-357)
chain: MADKGSGGSRLPLALPPASQGCSSGGSGSSAGGSGNPRPPRNLQGLLQMAITAGSQEPDPPPEPMSEERRQWLQEAMSAAFRGQREEVEQMKNCLRVLSQATPAMAGEAELATDQQEREGALELLADLCENMDNAADFCQLSGMHLLVGRYLEAGAAGLRWRAAQLIGTCSQNVAAIQEQVLGLGALRKLLRLLDRDSCDTVRVKALFAISCLVREQEAGLLQFLRLDGFSVLMRAMQQQVQKLKVKSAFLLQNLLVGHPEHKGTLCSMGMVQQLVALVRTEHSPFHEHVLGALCSLVTDFPQGVRECREPELGLEELLRHRCQLLQQREEYQEELEFCEKLLQTCFSSPTDDSMDR
B5: Ifi47 (protein, UniProt Q61635 1-420)
chain: MDQFISAFLKGASENSFQQLAKEFLPQYSALISKAGGMLSPETLTGIHKALQEGNLSDVMIQIQKAISAAENAILEVAVIGQSGTGKSSFINALRGLGHEADESADVGTVETTMCKTPYQHPKYPKVIFWDLPGTGTPNFHADAYLDQVGFANYDFFIIISSSRFSLNDALLAQKIKDAGKKFYFVRTKVDSDLYNEQKAKPIAFKKEKVLQQIRDYCVTNLIKTGVTEPCIFLISNLDLGAFDFPKLEETLLKELPGHKRHMFALLLPNISDASIELKKHFLREKIWLEALKSAAVSFIPFMTFFKGFDLPEQEQCLKDYRSYFGLDDQSIKEIAEKLGAPLADIKGELKCLDFWSLVKDNSIIAQATSAAEAFCAVKGGPESSAFQALKVYYRRTQFLNIVVDDAKHLLRKIETVNVA
B6: Khsrp (protein, UniProt Q3U0V1 1-748)
chain: MSDYNTGGPPPGPPPPAGGGGGAAGAGGGPPPGPPGAGDRGGGGPGGGGPGGGGASGGPSQPPGGGGPGIRKDAFADAVQRARQIAAKIGGDAATTVNNNTPDFGFGGQKRQLEDGDQPDSKKLASQGDSIGSQLGPIHPPPRTSMTEEYRVPDGMVGLIIGRGGEQINKIQQDSGCKVQISPDSGGLPERSVSLTGAPESVQKAKMMLDDIVSRGRGGPPGQFHDNANGGQNGTVQEIMIPAGKAGLVIGKGGETIKQLQERAGVKMILIQDGSQNTNVDKPLRIIGDPYKVQQACEMVMDILRERDQGGFGDRNEYGSRVGGGIDVPVPRHSVGVVIGRSGEMIKKIQNDAGVRIQFKQDDGTGPEKIAHIMGPPDRCEHAARIINDLLQSLRSGPPGPPGAPGMPPGGRGRGRGQGNWGPPGGEMTFSIPTHKCGLVIGRGGENVKAINQQTGAFVEISRQLPPNGDPNFKLFVIRGSPQQIDHAKQLIEEKIEGPLCPVGPGPGGPGPAGPMGPFNPGPFNQGPPGAPPHAGGPPPHQYPPQGWGNTYPQWQPPAPHDPNKAAAAATDPNAAWAAYYSHYYQQPPGPVPGPAPAPAAPPAQGEPPQPPPTGQSDYTKAWEEYYKKIGQQPQQPGAPPQQDYTKAWEEYYKKQAQVATGGGPGAPPGSQPDYSAAWAEYYRQQAAYYGQTPGPGGPQPPPTQQGQQQASGNCHPPPPPFSFQPPATVHPALVGSAGNPFPCGVCP
B7: Cse1l (protein, UniProt Q9ERK4 1-971)
chain: MELSDANLQTLTEYLKKTLDPDPAIRRPAEKFLESVEGNQNYPLLLLTLLEKSQDNVIKVCASVTFKNYIKRNWRIVEDEPNKICEADRVAIKANIVHLMLSSPEQIQKQLSDAISIIGREDFPQKWPDLLTEMVNRFQSGDFHVINGVLRTAHSLFKRYRHEFKSNELWTEIKLVLDAFALPLTNLFKATIELCSTHANDASALRILFSSLILISKLFYSLNFQDLPEFFEDNMETWMNNFHTLLTLDNKLLQTDDEEEAGLLELLKSQICDNAALYAQKYDEEFQRYLPRFVTAIWNLLVTTGREVKYDLLVSNAIQFLASVCERPHYKNLFEDQNTLTSICEKVIVPNMEFRAADEEAFEDNSEEYIRRDLEGSDIDTRRRAACDLVRGLCKFFEGPVTGIFSGYVNSMLQEYAKNPSVNWKHKDAAIYLVTSLASKAQTQKHGITQANELVNLTEFFVNHILPDLKSNNVNEFPVLKADGIKYIMIFRNQVPKEHLLVSIPLLISHLEAESIVVHTYAAHALERLFTMRGSNNTTLFTAAEIAPFVEILLTNLFKALTLPGSSENEYIMKAIMRSFSLLQEAIIPYIPTLITQLTQKLLAVSKNPSKPHFNHYMFEAICLSIRITCKANPAAVVNFEEALFLVFTEILQNDVQEFIPYVFQVMSLLLETHKNDIPSSYMALFPHLLQPVLWERTGNIPALVRLLQAFLERGSSTIATAAADKIPGLLGVFQKLIASKANDHQGFYLLNSIIEHMPPESVDQYRKQIFILLFQRLQNSKTTKFIKSFLVFINLYCIKYGALALQEIFDGIQPKMFGMVLEKIIIPEIQKVSGNVEKKICAVGITKLLTECPPMMDTEYTKLWTPLLQSLIGLFELPEDDSIPDEEHFIDIEDTPGYQTAFSQLAFAGKKEHDPVGQMVNNPKIHLAQSLHKLSTACPGRVPSMVSTSLNAEALQYLQGYLQAASVTLL

No constants are given. Whether binding was seen depends on the method and setting. In cells and extracts the contact can be indirect. These calls come from enrichment with a bait or labelling near it, and not all partners need be listed.

The target in this experiment is mutant p53 (mutp53) R172H protein of Trp53^R172H/R172H knock-in mice (mouse (endogenous in tissues of Trp53^R172H/R172H mice)) (UniProt P02340). Nature of the experiment: affinity purification with mass spectrometry; lysates of thymic lymphomas of Trp53^R172H/R172H mice (n = 3); IP with anti-p53 (FL393) beads, eluted with 0.1 M glycine, bands of a 4–15% SDS gel analysed by LC-MS/MS; normal thymus as control.
For Atp5a1 (from UniProt Q03265 44-553), the binding entry was “binds”. Consider Atp5b (from UniProt P56480 47-529), for which the binding result is on record as “binds”. For the molecule Bat3 (from UniProt Q9Z1R2 1-1154), the binding entry is “binds”. In the case of Cad (from UniProt B2RQC6 1-2225) it was “binds”; in that of Ctsb (from UniProt P10605), “binds”; in that of Dnajb4 (from UniProt Q9D832 1-337), “binds”. For the molecule Eprs (from UniProt Q8CGC7 1-1512), the binding entry is given as “binds”. Hadha (from UniProt Q8BMS1 37-763): the binding result is “binds”. Take Hsp90b1 (from UniProt P08113 22-802): the binding entry is “binds”.

On to Hspa2 (from UniProt P17156 1-633), for which the binding entry was “binds”. For Hspd1 (from UniProt P63038 27-573), the binding entry is “binds”. Consider Hsph1 (from UniProt Q61699 1-858), for which the binding entry is given as “binds”.

For Iqgap1 (from UniProt Q9JKF1 1-1657), the binding result is listed as “binds”.

Turning to Pabpc4 (from UniProt Q6PHQ9 1-660), the binding entry was “binds”. With Pcbp1 (from UniProt P60335 1-356), the binding entry is given as “binds”. As for Pcbp2 (from UniProt Q61990 1-362), the binding result was “binds”. For Pfn1 (from UniProt P62962 1-140), the binding result is “binds”. With Psmc6 (from UniProt P62334 1-389), the binding entry was “binds”. The same measure for Rfc5 (from UniProt Q9D0F6 1-339): “binds”; for Sar1a (from UniProt P36536 1-198): “binds”; for Stip1 (from UniProt Q60864 1-543): “binds”. The same measure for Ubr5 (from UniProt Q80TP3 1-2792): “binds”; for B1: “binds”; for B2: “binds”. The same measure for B3: “binds”; for B4: “binds”; for B5: “binds”.

Take B6: the binding result is “binds”. With B7, the binding entry was “binds”.
